Results deposited as PubChem BioAssay AID1224826 (NIAID, 2016).
Aim: 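Genes that change LPS-induced Tnf promoter activity in mouse macrophages when knocked down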 (primary screen). Cell system: RAW264.7 G9 macrophages from mouse bearing reporters for p65 (GFP) and the Tnf promoter (mCherry). Knock-down reagent: siRNA pool against mouse genes, 100 nM. Timing: 16 h of LPS stimulation, after 2 days of siRNA transfection. Conditions: bacterial lipopolysaccharide (Salmonella minnesota R595), 10 ng/ml. Detection: 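Imaged Tnf reporter mCherry in nuclei, minus background, normalised per plate to the median and expressed as robust z-scores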. Reading the numbers: Tnf reporter robust z-score: higher = stronger Tnf promoter reporter signal after LPS. Rule for the call: 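a well counts as active at a score of -1.3 or below (Tlr4 knock-down control median) or above 3 (raised signal); controls and wells holding fewer than 50 cells are excluded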. Meaning of the calls: active = Tnf reporter clearly lowered or raised; inactive = no clear change in Tnf reporter.
This is one part, drawn at random, of about 17,000 reagents. Over the whole deposit, about 1,110 (6.6%) were called active. 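Active means lowered or raised reporter signal; replicate intensities are raw and not normalised per plate.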 Further read-outs or replicates are left out here. Reagent sequences are not shown.

The opening 3 records, to show the layout:
gene | Tnf reporter robust z-score | fewer than 50 cells in well | Outcome
Clk3 | -1.1 | enough cells in well | inactive
Sirt3 | -0.71 | enough cells in well | inactive
4632434I11RIK | -0.02 | enough cells in well | inactive

Main list, from the start:
gene | Tnf reporter robust z-score | fewer than 50 cells in well | Outcome
Clk3 | -1.1 | enough cells in well | inactive
Sirt3 | -0.71 | enough cells in well | inactive
4632434I11RIK | -0.02 | enough cells in well | inactive
Adgrf3 | 0.02 | enough cells in well | inactive
P2rx6 | 0.41 | enough cells in well | inactive
Ywhaz | -0.69 | enough cells in well | inactive
Fut4 | 0.95 | enough cells in well | inactive
Ccr1l1 | 1.38 | enough cells in well | inactive
Or2v2 | 0.38 | enough cells in well | inactive
Nelfcd | 0.03 | enough cells in well | inactive
Tfcp2l1 | 0.51 | enough cells in well | inactive
1700102P08Rik | -0.34 | enough cells in well | inactive
Slc22a22 | 0.74 | enough cells in well | inactive
Senp7 | 1.11 | enough cells in well | inactive
Rit1 | -0.64 | enough cells in well | inactive
Haus4 | -0.81 | enough cells in well | inactive
Arg2 | -0.93 | enough cells in well | inactive
Acaca | -1.85 | enough cells in well | active
Scamp4 | 0.82 | enough cells in well | inactive
Vmn1r171 | -1.19 | enough cells in well | inactive
Myf5 | -0.09 | enough cells in well | inactive
Or5p80 | – | fewer than 50 cells per well; well left out of calls | inactive
C1qc | 1.72 | enough cells in well | inactive
Tjp1 | -0.27 | enough cells in well | inactive
